Screening data, single-dose tests

Results are given as percent effect.
The record does not define 0% and 100%; most values in the screen are far below 50% and negative numbers occur (in some assays of this library far below -100).
This is an unselected part of the compounds tested.

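Whole-parasite assay of Trypanosoma brucei over 72 hours; the read-out is not stated. Concentration: 10 µM. Higher reads as stronger inhibition (inferred: compounds with an IC50 in retests scored well above the rest). Values scatter widely below zero; nearly all retest evidence comes from the higher of the two concentrations used. About 2,700 compounds were tested under these conditions; 0.51% (about 14) showed 50% or more at least once.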

Cc1cc(C)n(C2CCCN(C(=O)c3ccc4c(c3)COC4)C2)n1 (configuration not stated) read -77.32%. COc1c(CNC2CCc3ccccc32)c(C)nn1C (configuration not stated) read -36.59%. For CC(Cn1cccn1)NC(=O)NCc1cccnc1 (configuration not stated) the result was -30.88%. With CC(=O)N(Cc1ncc(C(C)C)o1)C1CCN(Cc2cc(C)on2)C1 (configuration not stated) the screen gave -93.29%.

Cc1nnc(NCc2ccccc2S(=O)(=O)N(C)C)c(C#N)c1C gave -92.39%. For COc1c(C2CCCN2C(=O)c2ccc(C#N)cc2)c(C)nn1C (configuration not stated) the result was -30.89%. Result for Cc1cc(NC(=O)CN2CCCC2c2noc(C(C)C)n2)no1 (configuration not stated) was -17.3%. c1ccc2cc(OCCCN3CCn4c(nnc4C4CC4)C3)ccc2c1 gave -5.314%.

COc1cc(S(=O)(=O)N2CCc3ccccc32)cc(C(=O)O)c1OC read -22.06%. With CCc1noc(CN2CCN(CCO)CC2)n1 the screen gave -57.08%. CCc1ccc(C(=O)N2CCCN(Cc3nccn3CC)CC2)s1 gave -57.94%. For O=C(COc1ccccc1Cl)N1CCCC(n2ccnc2)C1 (configuration not stated) the result was -61.35%.

COCc1cccc(CNCc2c(C)nn(C)c2N2CCOCC2)c1 gave -50.07%. With CCc1ncc2c(n1)CN(Cc1nnc(Cc3ccccc3)o1)CC2 the screen gave -39.27%. Result for Cc1csc(N2CCCN(C(=O)c3c(C)noc3C)CC2)n1 was -37.68%. CCOCC(O)CN1CCN(C(=O)c2cc(F)cc(F)c2)CC1 (configuration not stated) gave -32.92%.

Cc1ccc(-c2noc(CN3CCc4cncnc4C3)n2)cc1 gave -30.94%. Cc1cnn(CC2CN(CC(=O)Nc3ccnn3C(C)C)CCO2)c1 (configuration not stated) gave 14.46%. Result for c1nc(N2CCOC(Cn3cncn3)C2)c2cc[nH]c2n1 (configuration not stated) was -44.22%. CN(C(=O)Cc1ccccc1F)C1CCN(c2ccccn2)CC1 gave -60.91%.

For CC(=O)NCCNC(=O)CN1CCOC(Cn2cccn2)C1 (configuration not stated) the result was -55.58%. Cc1cnn(CC2CCCN2Cc2cc(C)no2)c1 (configuration not stated) gave -56.31%. For Cc1csc(N2CCN(CC(=O)Nc3cc(C)nn3C)CC2C)n1 (configuration not stated) the result was -95.53%. For CC(C)c1noc(CN2CCCN(Cc3cccs3)CC2)n1 the result was -33.95%.

Result for O=C(CCCNc1ncccn1)N1CCCC(n2cncn2)C1 (configuration not stated) was -18.9%. For CC(C)n1ccnc1CN1CCCN(C(=O)CC2CCCO2)CC1 (configuration not stated) the result was -44.53%. Result for Cc1nn(C)c(C)c1C1COCCN1C(=O)CCc1ccccc1 (configuration not stated) was -42.22%. For O=C(c1cccnc1N1CCCCC1)N1CCCC(n2ccnc2)C1 (configuration not stated) the result was -25.27%.

With Cc1cc(C2CCCN(C(=O)CCc3cscn3)C2)n[nH]1 (configuration not stated) the screen gave -31.05%. Result for COCc1cccc(CNCc2c(C(C)C)nn(C)c2N(C)C)c1 was -26.18%. Result for O=C(CCN1C(=O)CCC1=O)NCC1(c2c(F)cccc2F)CCCC1 was -6.851%. CC(NC(=O)NCc1ccoc1)c1ccc2c(c1)CC(=O)N2 (configuration not stated) read -38.33%.

Some entries from above, unchanged:

| Compound | effect |
|---|---|
| `Cc1cc(C2CCCN(C(=O)CCc3cscn3)C2)n[nH]1` (configuration not stated) | -31.05 |
| `Cc1ccc(-c2noc(CN3CCc4cncnc4C3)n2)cc1` | -30.94 |

The values are deposited in ChEMBL (CHEMBL3988442, “University of Dundee, Small-Polar-MMV Screening Library” (2021)).